Reference: patent publication US20210087281A1 (AGOMAB THERAPEUTICS, published 2021)
Where a chain is given by its changes, count along the chain named. These are yes or no findings as the source states them, for the method shown. For some assays here: Binding calls can cover weak binding; strength is not graded here.

B1: 76H10 chimeric llama-human IgG1 mAb (antibody, V domains shown)
VH: QLQLVESGGGLVQPGGSLRVSCTASGFTFNTYYMTWVRQAPGKGLEWVSDINSGGGTYYADSVKGRFTISRDNAKNTLYLQMNSLKPEDTALYYCVRVRIWPVGYDYWGQGTQVTVSS
VL: QAVVTQEPSLSVSPGGTVTLTCGLSSGSVTTSNYPGWFQQTPGQAPRTLIYNTNNRHSGVPSRFSGSISGNKAALTITGAQPEDEADYYCSLYTGSYTTVFGGGTHLTVL
notes: llama VH on human IgG1 CH1-CH2-CH3, llama VL on human lambda CL
B2: 71G3 chimeric llama-human IgG1 mAb (antibody, V domains shown)
VH: QVQLVESGGGLVQPGGSLRVSCAASGFTFSTYYMSWVRQAPGKGLEWVSDIRTDGGTYYADSVKGRFTMSRDNAKNTLYLQMNSLKPEDTALYYCARTRIFPSGYDYWGQGTQVTVSS
VL: QAVVTQEPSLSVSPGGTVTLTCGLSSGSVTTSNYPGWFQQTPGQAPRTLIYNTNSRHSGVPSRFSGSISGNKAALTIMGAQPEDEADYYCSLYPGSTTVFGGGTHLTVL
notes: as for B1
B3: 71D6 chimeric llama-human IgG1 mAb (antibody, V domains shown)
VH: ELQLVESGGGLVQPGGSLRLSCAASGFTFSSYGMSWVRQAPGKGLEWVSAINSYGGSTSYADSVKGRFTISRDNAKNTLYLQMNSLKPEDTAVYYCAKEVRADLSRYNDYESYDYWGQGTQVTVSS
VL: QPVLNQPSALSVTLGQTAKITCQGGSLGARYAHWYQQKPGQAPVLVIYDDDSRPSGIPERFSGSSSGGTATLTISGAQAEDEGDYYCQSADSSGSVFGGGTHLTVL
notes: as for B1
B4: 71C3 chimeric llama-human IgG1 mAb (antibody, V domains shown)
VH: B3 VH with E1Q, Y32H, G33A, Y54G, V100L, A102F, S105A, N108T, S112A, Y113W
VL: SYELTQPSALSVTLGQTAKITCQGGSLGSSYAHWYQQKPGQAPVLVIYDDDSRPSGIPERFSGSSSGGTATLTISGAQAEDEGDYYCQSADSSGNAAVFGGGTHLTVL
notes: as for B1
B5: 71D4 chimeric llama-human IgG1 mAb (antibody, V domains shown)
VH: B3 VH with S31G, A50D, Y54G, E99D, V100M, A102L, D103Y, S105A, S112A, Y113W
VL: B4 VL with Y2S, E3A
notes: as for B1
B6: 71A3 chimeric llama-human IgG1 mAb (antibody, V domains shown)
VH: EVQLVESGGGLVQPGGSLRLSCAASGFSFKDYDITWVRQAPGKGLEWVSTITSRSGSTSYVDSVKGRFTISGDNAKNTLYLQMNSLKPEDTAVYYCAKVYATTWDVGPLGYGMDYWGKGTLVTVSS
VL: B4 VL
notes: as for B1
B7: 71G2 chimeric llama-human IgG1 mAb (antibody, V domains shown)
VH: EVQLQESGGGLVQPGGSLRLSCAASGFTFSIYDMSWVRQAPGKGLEWVSTINSDGSSTSYVDSVKGRFTISRDNAKNTLYLQMNSLKPEDTAVYYCAKVYGSTWDVGPMGYGMDYWGKGTLVTVSS
VL: SSALTQPSALSVSLGQTARITCQGGSLGSSYAHWYQQKPGQAPVLVIYGDDSRPSGIPERFSGSSSGGTATLTISGAQAEDEDDYYCQSTDSSGNTVFGGGTRLTVL
notes: as for B1
B8: 76H10 Fab (Fab, V domains shown)
VH: B1 VH
VL: B1 VL
notes: llama Fab (VH-CH1 and lambda VL-CL) with MYC flag, crude periplasmic extract
B9: 71G3 Fab (Fab, V domains shown)
VH: B2 VH
VL: B2 VL
notes: as for B8
B10: 71D6 Fab (Fab, V domains shown)
VH: B3 VH
VL: B3 VL
notes: as for B8
B11: 71C3 Fab (Fab, V domains shown)
VH: B3 VH with E1Q, Y32H, G33A, Y54G, V100L, A102F, S105A, N108T, S112A, Y113W
VL: B4 VL
notes: as for B8
B12: 71D4 Fab (Fab, V domains shown)
VH: B3 VH with S31G, A50D, Y54G, E99D, V100M, A102L, D103Y, S105A, S112A, Y113W
VL: B4 VL with Y2S, E3A
notes: as for B8
B13: 71A3 Fab (Fab, V domains shown)
VH: B6 VH
VL: B4 VL
notes: as for B8
B14: 71G2 Fab (Fab, V domains shown)
VH: B7 VH
VL: B7 VL
notes: as for B8
B15: 76G7 Fab (Fab, V domains shown)
VH: QVQLVESGGNLVQPGGSLRLSCAASGFTFSNYYMSWVRQAPGKGLEWVSDIYSDGSTTWYSDSVKGRFTISRDNAKNTLSLQMNSLKSEDTAVYYCARVKIYPGGYDAWGQGTQVTVSS
VL: QAGLTQPPSVSGSPGKTVTISCAGNSSDVGYGNYVSWYQQFPGMAPKLLIYLVNKRASGITDRFSGSKSGNTASLTISGLQSEDEADYYCASYTGSNNIVFGGGTHLTVL
notes: as for B8
B16: 72F8 Fab (Fab, V domains shown)
VH: ELQLVESGGGLVQPGGSLRLSCAASGFTFSNYVMSWVRQAPGKGLEWVSDTNSGGSTSYADSVKGRFTISRDNAKNTLYLQMNSLKPEDTALYYCARSFFYGMNYWGKGTQVTVSS
VL: QSALTQPPSLSASPGSSVRLTCTLSSGNNIGSYDISWYQQKAGSPPRYLLNYYTDSRKHQDSGVPSRFSGSKDASANAGLLLISGLQPEDEADYYCSAYKSGSYRWVFGGGTHVTVL
notes: as for B8

Legend:
[1] = molecular target: llama-human MET chimeric protein CH3; experiment: ELISA, protein in solid phase
[2] = molecular target: llama-human MET chimeric protein CH7; experiment: ELISA, protein in solid phase
[3] = molecular target: llama-human MET chimeric protein CH6; experiment: ELISA, protein in solid phase
human MET ECD [4] = molecular target: T1, human MET ECD (human, UniProt P08581 25-932); experiment: ELISA, protein in solid phase
T1 construct: range 1-932; recombinant ECD made by the applicants; the stated range begins at residue 1, so it includes the signal peptide of the entry; also called hMET; hMET ECD

[5] = molecular target: llama-human MET chimeric protein CH5; experiment: ELISA, protein in solid phase
[6] = molecular target: llama-human MET chimeric protein CH2; experiment: ELISA, protein in solid phase
llama MET ECD (llama) = experiment: ELISA, protein in solid phase
[7] = molecular target: llama-human MET chimeric protein CH1; experiment: ELISA, protein in solid phase
[8] = molecular target: llama-human MET chimeric protein CH4; experiment: ELISA, protein in solid phase
mouse MET ECD [9] = molecular target: T2, mouse MET ECD (mouse, UniProt P16056 25-931); experiment: ELISA, MET ECD in solid phase
T2 construct: range 1-931; recombinant ECD made by the applicants; the stated range begins at residue 1; also called mMET; mMET ECD

human MET ECD [10] = molecular target: T1, human MET ECD; experiment: ELISA, MET ECD in solid phase
mouse MET ECD [11] = molecular target: T2, mouse MET ECD; experiment: SPR and ELISA, periplasmic Fab
human MET ECD [12] = molecular target: T1, human MET ECD; experiment: SPR and ELISA, periplasmic Fab

Binder	binding [1]	binding [2]	binding [3]	binding (human MET ECD [4])	binding [5]	binding [6]	binding (llama MET ECD (llama))	binding [7]	binding [8]	binding (mouse MET ECD [9])	binding (human MET ECD [10])	binding (mouse MET ECD [11])	binding (human MET ECD [12])
B1	binds	no binding (tested: 0-20 nM)	no binding (tested: 0-20 nM)	binds	binds	binds	no binding (tested: 0-20 nM)	binds	binds	binds	binds	–	–
B2	binds	no binding (tested: 0-20 nM)	no binding (tested: 0-20 nM)	binds	binds	binds	no binding (tested: 0-20 nM)	binds	binds	binds	binds	–	–
B3	binds	binds	binds	binds	no binding (tested: 0-20 nM)	binds	no binding (tested: 0-20 nM)	binds	no binding (tested: 0-20 nM)	binds	binds	–	–
B4	binds	binds	binds	binds	no binding (tested: 0-20 nM)	binds	no binding (tested: 0-20 nM)	binds	no binding (tested: 0-20 nM)	binds	binds	–	–
B5	binds	binds	binds	binds	no binding (tested: 0-20 nM)	binds	no binding (tested: 0-20 nM)	binds	no binding (tested: 0-20 nM)	binds	binds	–	–
B6	binds	binds	binds	binds	no binding (tested: 0-20 nM)	binds	no binding (tested: 0-20 nM)	binds	no binding (tested: 0-20 nM)	binds	binds	–	–
B7	binds	binds	binds	binds	no binding (tested: 0-20 nM)	binds	no binding (tested: 0-20 nM)	binds	no binding (tested: 0-20 nM)	binds	binds	–	–
B8	–	–	–	–	–	–	–	–	–	–	–	binds	binds
B9	–	–	–	–	–	–	–	–	–	–	–	binds	binds
B10	–	–	–	–	–	–	–	–	–	–	–	binds	binds
B11	–	–	–	–	–	–	–	–	–	–	–	binds	binds
B12	–	–	–	–	–	–	–	–	–	–	–	binds	binds
B13	–	–	–	–	–	–	–	–	–	–	–	binds	binds
B14	–	–	–	–	–	–	–	–	–	–	–	binds	binds
B15	–	–	–	–	–	–	–	–	–	–	–	binds	binds
B16	–	–	–	–	–	–	–	–	–	–	–	binds	binds
